This note sets out measurements from PMC3806761, “Characterization of the Akt2 Domain Essential for Binding Nuclear p21cip1 to Promote Cell Cycle Arrest during Myogenic Differentiation” (PLoS ONE, 2013).

Sequences of proteins named here, by UniProt entry; tags and fusion partners are left off.
UniProt P38936: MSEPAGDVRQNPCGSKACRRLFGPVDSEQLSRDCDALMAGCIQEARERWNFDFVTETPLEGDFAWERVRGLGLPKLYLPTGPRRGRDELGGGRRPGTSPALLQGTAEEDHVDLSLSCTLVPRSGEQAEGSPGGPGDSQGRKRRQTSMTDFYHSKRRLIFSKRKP

The target in this experiment is T1, recombinant human p21cip1 (human, UniProt P38936 1-164).
T1 construct: In the functional row this molecule stands for p21cip1 endogenous in human myoblasts; source: recombinant, purified
Briefly: pull-down; purified His-tagged Akt2 proteins and His-tagged p21cip1 incubated together on ice; p21cip1 immunoprecipitated with anti-p21; immunoprecipitates probed for Akt2 by Western blot; both purified. (In general: In western blotting, separated proteins are transferred to a membrane and probed.)

Results are given in words; binding and its absence hold for the method and conditions named.

For the molecule “Akt2 (1–430) (from UniProt P31751 1-430) (domain or fragment)”, the binding result is “no binding”.

B1: Akt2 (430–481) (domain or fragment, UniProt P31751 430-481)
chain: VTSEVDTRYFDDEFTAQSITITPPDRYDSLGLLELDQRTHFPQFSYSASIRE
Regarding B1, the binding entry is “no binding”.
